According to article PMC10141522:
No constants are given. Whether binding was seen depends on the method and setting. In cells and extracts the contact can be indirect. Some results given as binding are weak or reduced against the parent protein; the word gives no strength.

Amino acid sequences for entries named in this document (tags omitted).
UniProt P19532: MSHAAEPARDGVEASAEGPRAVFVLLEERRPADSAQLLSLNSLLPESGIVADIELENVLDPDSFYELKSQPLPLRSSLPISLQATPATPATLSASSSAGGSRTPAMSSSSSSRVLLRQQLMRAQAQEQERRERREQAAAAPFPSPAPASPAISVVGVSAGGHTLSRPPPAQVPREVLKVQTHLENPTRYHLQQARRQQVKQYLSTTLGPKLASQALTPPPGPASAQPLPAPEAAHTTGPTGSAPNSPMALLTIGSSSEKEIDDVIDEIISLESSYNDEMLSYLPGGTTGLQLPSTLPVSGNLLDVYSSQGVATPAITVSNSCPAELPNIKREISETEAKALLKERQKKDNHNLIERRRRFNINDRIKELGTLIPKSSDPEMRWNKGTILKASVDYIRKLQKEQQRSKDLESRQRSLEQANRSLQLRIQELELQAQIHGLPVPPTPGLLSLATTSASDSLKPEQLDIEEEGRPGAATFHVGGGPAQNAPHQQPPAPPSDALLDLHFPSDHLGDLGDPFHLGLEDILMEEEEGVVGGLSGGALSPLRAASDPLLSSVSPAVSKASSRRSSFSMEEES
UniProt Q13263: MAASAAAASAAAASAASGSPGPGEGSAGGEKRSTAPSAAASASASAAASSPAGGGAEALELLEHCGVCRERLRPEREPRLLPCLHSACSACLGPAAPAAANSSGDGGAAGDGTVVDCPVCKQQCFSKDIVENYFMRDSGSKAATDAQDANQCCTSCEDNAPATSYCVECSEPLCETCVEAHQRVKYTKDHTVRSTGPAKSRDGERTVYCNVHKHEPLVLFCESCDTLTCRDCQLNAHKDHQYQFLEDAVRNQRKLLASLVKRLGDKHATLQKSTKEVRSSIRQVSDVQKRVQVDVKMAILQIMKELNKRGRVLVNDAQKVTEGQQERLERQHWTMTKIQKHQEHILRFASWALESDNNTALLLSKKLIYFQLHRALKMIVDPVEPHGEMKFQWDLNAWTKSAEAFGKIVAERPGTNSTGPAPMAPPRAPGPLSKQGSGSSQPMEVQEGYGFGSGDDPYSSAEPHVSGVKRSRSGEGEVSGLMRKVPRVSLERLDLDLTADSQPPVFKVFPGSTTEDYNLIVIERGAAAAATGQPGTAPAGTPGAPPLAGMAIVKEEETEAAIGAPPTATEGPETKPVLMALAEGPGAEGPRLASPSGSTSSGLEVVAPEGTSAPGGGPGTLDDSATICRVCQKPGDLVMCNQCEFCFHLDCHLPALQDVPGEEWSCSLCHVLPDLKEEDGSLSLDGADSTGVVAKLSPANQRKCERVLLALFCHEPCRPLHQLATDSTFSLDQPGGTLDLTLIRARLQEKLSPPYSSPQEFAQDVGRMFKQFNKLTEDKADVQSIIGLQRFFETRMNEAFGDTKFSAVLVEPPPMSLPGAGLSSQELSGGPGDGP

Target: TFE3 (UniProt P19532)
Test: co-IP; coimmunoprecipitation and Western blot (Fig. S3D, E); cells lysed in IPE150 buffer (20 mM Hepes pH 7.5, 150 mM NaCl, 0.5% NP40, 10% glycerol) with sonication; cells and bait not told in the text shown

binding: binds
Substance: TRIM28 (from UniProt Q13263 1-835)
